Measured values reported in paper PMC10303846, “In vitro antiplasmodial activity and toxicological profile of extracts, fractions and chemical constituents of leaves and stem bark from Dacryodes edulis (Burseraceae)” (BMC Complementary Medicine and Therapies, 2023).

Tested on: RAW 264.7 cells
Test: Resazurin-based in vitro cytotoxicity assay
Type: cell-based
Conditions: CC50 Raw cells / IC50 PfDd2
Method: The cytotoxicity profile of extracts, fractions and isolated compounds was assessed using the resazurin-based assay essentially as previously described against RAW 264.7 cells duly cultivated in complete Dulbecco′s Modified Eagle′s Medium (DMEM) that contain 13.5 g/L of DMEM (Sigma Aldrich), 10% fetal bovine serum (Sigma Aldrich), 0.2% sodium bicarbonate (w/v) (Sigma Aldrich) and 50 μg/mL of gentamicin (Sigma Aldrich). Globally, macrophages (Raw cells) were seeded into 96-well cell-culture flat-bottomed plates at a density of 10^4 cells in 100 μL of complete medium/well and placed in incubation for 24 h at 37℃, and 5% CO2 allowing cell adhesion. Following cell adhesion, ten microliters of each serially diluted test sample solution was added to assay plates and left in incubation for 48 h under the same experimental conditions. Growth control (1% DMSO-100% growth) and positive control wells (podophyllotoxin at 20 μM) were included in the experimental plates. Cell proliferation was checked by adding 10 μL of a stock solution of resazurin (0.15 mg/mL in sterile PBS) to each well followed by an additional incubation of 4 h in the same culture conditions. Fluorescence was then read using Tecan Infinite M200 fluorescence multiwell plate reader (Tecan) at an excitation/emission of 530/590 nm. […]

Row | SMILES | SI PfDd2
1 | C/C(=C/CCC(C)C1CCC2(C)C3=CCC4C(C)(C)C(=O)CCC4(C)C3CCC12C)C(=O)O (centres unmarked) [compound 13, 3-oxo-lanosta-7,24-Z-dien-26-oid acid] | > 7
2 | O=C(O)c1ccc(O)c(O)c1 [compound 6, 3,4-dihydroxybenzoic acid] | > 6
